One experiment addresses T1, Myc-Ocln (mouse) (UniProt Q61146).
T1 sequence: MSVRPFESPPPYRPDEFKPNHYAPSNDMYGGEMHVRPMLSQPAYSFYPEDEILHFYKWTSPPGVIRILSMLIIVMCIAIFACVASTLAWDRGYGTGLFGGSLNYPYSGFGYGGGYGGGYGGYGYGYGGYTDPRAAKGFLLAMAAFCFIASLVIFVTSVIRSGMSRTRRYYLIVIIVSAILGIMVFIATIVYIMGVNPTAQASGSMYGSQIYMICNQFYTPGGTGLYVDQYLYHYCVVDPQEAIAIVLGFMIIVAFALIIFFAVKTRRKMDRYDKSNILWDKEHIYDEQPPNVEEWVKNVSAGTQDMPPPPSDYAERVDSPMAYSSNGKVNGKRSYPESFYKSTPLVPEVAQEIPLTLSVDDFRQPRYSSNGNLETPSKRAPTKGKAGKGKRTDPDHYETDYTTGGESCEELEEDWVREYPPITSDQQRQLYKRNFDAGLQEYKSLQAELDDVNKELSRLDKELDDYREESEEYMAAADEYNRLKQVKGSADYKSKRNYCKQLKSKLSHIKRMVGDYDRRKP
The experiment is described as follows: co-IP; HEK-293 cells cotransfected with Myc-Ocln and GFP-FAK, 48 h; precipitated with Myc or GFP antibody; blots with Ocln and FAK antibodies.

Sequences of proteins named here, by UniProt entry; tags and fusion partners are left off.
UniProt P34152: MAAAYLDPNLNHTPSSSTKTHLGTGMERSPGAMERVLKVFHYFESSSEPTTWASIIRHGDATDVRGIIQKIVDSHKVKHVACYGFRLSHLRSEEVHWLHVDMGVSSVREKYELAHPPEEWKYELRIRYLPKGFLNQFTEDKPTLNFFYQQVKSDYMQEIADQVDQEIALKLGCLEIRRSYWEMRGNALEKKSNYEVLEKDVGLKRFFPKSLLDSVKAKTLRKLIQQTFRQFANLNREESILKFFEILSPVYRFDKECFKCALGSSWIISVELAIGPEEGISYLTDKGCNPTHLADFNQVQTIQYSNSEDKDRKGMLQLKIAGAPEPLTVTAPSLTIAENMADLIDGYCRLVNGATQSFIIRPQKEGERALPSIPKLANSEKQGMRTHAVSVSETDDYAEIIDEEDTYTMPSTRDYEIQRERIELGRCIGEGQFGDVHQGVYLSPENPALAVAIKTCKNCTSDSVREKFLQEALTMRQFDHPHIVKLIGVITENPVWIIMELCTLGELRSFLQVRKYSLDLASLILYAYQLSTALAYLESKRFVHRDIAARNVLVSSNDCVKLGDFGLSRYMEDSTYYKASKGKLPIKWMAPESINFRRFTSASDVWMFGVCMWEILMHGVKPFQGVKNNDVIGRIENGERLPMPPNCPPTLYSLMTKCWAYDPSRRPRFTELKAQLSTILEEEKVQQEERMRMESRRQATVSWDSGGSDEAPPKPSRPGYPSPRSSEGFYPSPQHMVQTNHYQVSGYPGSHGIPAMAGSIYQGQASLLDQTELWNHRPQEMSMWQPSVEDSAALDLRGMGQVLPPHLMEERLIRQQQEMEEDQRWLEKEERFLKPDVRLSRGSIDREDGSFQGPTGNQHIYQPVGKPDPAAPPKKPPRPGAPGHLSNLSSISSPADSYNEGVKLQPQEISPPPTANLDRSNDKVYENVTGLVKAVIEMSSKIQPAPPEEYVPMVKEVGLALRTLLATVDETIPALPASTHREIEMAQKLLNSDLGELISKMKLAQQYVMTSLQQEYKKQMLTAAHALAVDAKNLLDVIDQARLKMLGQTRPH

Experiment [1] addresses T2, GST-DSP fusion protein (recombinant dentin sialoprotein 1–458) (mouse) (UniProt P97399).
T2 sequence: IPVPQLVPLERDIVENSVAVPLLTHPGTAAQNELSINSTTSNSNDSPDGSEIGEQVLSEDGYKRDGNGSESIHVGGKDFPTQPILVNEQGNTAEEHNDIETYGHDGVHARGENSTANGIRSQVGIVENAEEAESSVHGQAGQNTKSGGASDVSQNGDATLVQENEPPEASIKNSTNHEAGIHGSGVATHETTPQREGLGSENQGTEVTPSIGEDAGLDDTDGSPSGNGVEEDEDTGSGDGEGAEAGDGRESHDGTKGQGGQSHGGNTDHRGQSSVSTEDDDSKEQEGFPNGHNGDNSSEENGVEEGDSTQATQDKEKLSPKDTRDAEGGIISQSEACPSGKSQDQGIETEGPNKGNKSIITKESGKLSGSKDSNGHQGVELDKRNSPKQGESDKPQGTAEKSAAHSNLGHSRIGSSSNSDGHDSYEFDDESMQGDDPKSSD
Description: pull-down; GST-DSP fusion protein incubated with 1 ml lysate of mouse odontoblast-like cells (MO-6G3) in 50 mM Tris-HCl pH 7.4, 150 mM NaCl, Triton X100 overnight at 4 °C; glutathione agarose beads; eluted with reduced glutathione; Western blots with antibodies to 110 candidates; only the target purified. (In general: In western blotting, separated proteins are transferred to a membrane and probed.)

The target of experiment [2] is T3, OclnL2 (occludin extracellular loop 2, aa 194–241) expressed in HEK-293 cells (mouse) (UniProt Q61146).
T3 sequence: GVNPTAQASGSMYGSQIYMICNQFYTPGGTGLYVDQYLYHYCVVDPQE
Description: co-IP; HEK-293 cells transfected with Myc-Ocln and Flag-DSP or Myc-DSP and Flag-Ocln (and fragments), 48 h; lysis in 50 mM Tris-HCl pH 7.4, 150 mM NaCl, 1 mM EDTA, 1% Triton X-100; precipitated with Myc antibody; blots with anti-Myc, anti-DSP or anti-Ocln.

No constants are given. Whether binding was seen depends on the method and setting. Binding seen in cells or lysates may run through a third protein. Some binding calls cover weakened binding; strength is not graded here. For some of these results: Tags and fused reporters may be left off the sequences shown.

Regarding “GFP-FAK (focal adhesion kinase) (from UniProt P34152 1-1052) (enzyme)”, the binding entry with Myc-Ocln (mouse) was “binds”.

B1: integrin β6 (receptor, UniProt Q9Z0T9 22-787)
chain: GCAWGGAESCSDCLLTGPHCAWCSQENFTHLSGAGERCDTPANLLAKGCQLPFIENPVSRIEVLQNKPLSVGRQKNSSDIVQIAPQSLVLKLRPGREQTLQVQVRQTEDYPVDLYYLMDLSASMDDDLNTIKELGSRLAKEMSKLTSNFRLGFGSFVEKPVSPFMKTTPEEITNPCSSIPYFCLPTFGFKHILPLTDDAERFNEIVRKQKISANIDTPEGGFDAIMQAAVCKEKIGWRNDSLHLLVFVSDADSHFGMDSKLAGIVIPNDGLCHLDHRNEYSMSTVLEYPTIGQLIDKLVQNNVLLIFAVTQEQVHLYENYAKLIPGATVGLLQKDSGNILQLIISAYEELRSEVELEVLGDTEGLNLSFTALCNNGVLFPHQKKCSHMKVGDTASFNVTVSVSNCEKRSRNLIIKPVGLGDTLEILVSAECDCDCQREIETNSSKCHNGNGSFQCGVCTCNPGHMGPHCECGEDMVSTDSCKESPGHPSCSGRGDCYCGQCICHLSPYGSIYGPYCQCDNFSCLRHKGLLCGDNGDCDCGECVCRDGWTGEYCNCTTNRDSCTSEDGVLCSGRGDCVCGKCVCRNPGASGPTCERCPTCGDPCNSKRSCIECYLSADGQAQEECADKCKAIGATISEEDFSKDTSVSCSLQGENECLITFLITTDNEGKTIIHNINEKDCPKPPNIPMIMLGVSLAILLIGVVLLCIWKLLVSFHDRKEVAKFEAERSKAKWQTGTNPLYRGSTSTFKNVTYKHREKHKAGLSSDG
Regarding B1, the binding result in experiment [1] is listed as “binds”.

B2: DSPf5 (DSP aa 363–458) expressed in HEK-293 cells (domain or fragment, UniProt P97399 363-458)
chain: GIETEGPNKGNKSIITKESGKLSGSKDSNGHQGVELDKRNSPKQGESDKPQGTAEKSAAHSNLGHSRIGSSSNSDGHDSYEFDDESMQGDDPKSSD
For the molecule B2, the binding result in experiment [2] is listed as “binds”.

B3: occludin (Ocln) (receptor, UniProt Q61146 1-521)
chain: MSVRPFESPPPYRPDEFKPNHYAPSNDMYGGEMHVRPMLSQPAYSFYPEDEILHFYKWTSPPGVIRILSMLIIVMCIAIFACVASTLAWDRGYGTGLFGGSLNYPYSGFGYGGGYGGGYGGYGYGYGGYTDPRAAKGFLLAMAAFCFIASLVIFVTSVIRSGMSRTRRYYLIVIIVSAILGIMVFIATIVYIMGVNPTAQASGSMYGSQIYMICNQFYTPGGTGLYVDQYLYHYCVVDPQEAIAIVLGFMIIVAFALIIFFAVKTRRKMDRYDKSNILWDKEHIYDEQPPNVEEWVKNVSAGTQDMPPPPSDYAERVDSPMAYSSNGKVNGKRSYPESFYKSTPLVPEVAQEIPLTLSVDDFRQPRYSSNGNLETPSKRAPTKGKAGKGKRTDPDHYETDYTTGGESCEELEEDWVREYPPITSDQQRQLYKRNFDAGLQEYKSLQAELDDVNKELSRLDKELDDYREESEEYMAAADEYNRLKQVKGSADYKSKRNYCKQLKSKLSHIKRMVGDYDRRKP
Regarding B3, in experiment [1], the binding result was “binds”.
